# Laboratory results as given in the supplement of paper PMC4604168 (melanoma cell lines).
# Some of the results follow. Single values are uncertain, as repeats are few or missing.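 Imaging used 1,536-well plates; nuclei positive for cleaved PARP by antibody were divided by total DNA-stained nuclei to yield the apoptosis fraction. Doses for screening kept most cells viable, and cell lines differ markedly in resting and induced cleaved-PARP levels.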
# Tested on: COLO792
# Experiment: cleaved PARP positive nuclei fraction relative to DMSO control; melanoma cells; higher = more apoptosis
# Settings: library dose: low library concentration; 72 h
row,Compound,cleaved PARP positive nuclei fraction
1,"COc1ccc(C2=N[C@@H](c3ccc(Cl)cc3)[C@@H](c3ccc(Cl)cc3)N2C(=O)N2CCNC(=O)C2)c(OC(C)C)c1 [Nutlin-3] + CC1(C)NC(=O)N(c2ccc([N+](=O)[O-])c(C(F)(F)F)c2)C1=O [nilutamide] (first compound 0.1 µM, partner dose 1 µM)",103%
2,"Cn1cnc2c(F)c(Nc3ccc(Br)cc3Cl)c(C(=O)NOCCO)cc21 [selumetinib] + O=C(CCCCCCC(=O)Nc1ccccc1)NO [vorinostat] (first compound 0.015 µM, partner dose 0.08 µM)",94.4%
3,"COc1ccc(C2=N[C@@H](c3ccc(Cl)cc3)[C@@H](c3ccc(Cl)cc3)N2C(=O)N2CCNC(=O)C2)c(OC(C)C)c1 [Nutlin-3] + Cc1ccc(NC(=O)c2cccc(N(C)C)c2)cc1NC(=O)c1ccc(O)cc1 [ZM336372] (first compound 0.1 µM, partner dose 2 µM)",18.9%
4,"CS(=O)(=O)c1ccc(C(=O)Nc2ccc(Cl)c(-c3ccccn3)c2)c(Cl)c1 [vismodegib] + O=C(O)c1ccc(-c2c[nH]c3ncc(-c4ccccc4)cc23)cc1C1CCCC1 [GSK650394] (first compound 1 µM, partner dose 0.16 µM)",93.1%
5,"C[C@]1(O)C[C@@H](c2nc(-c3ccc4ccc(-c5ccccc5)nc4c3)c3c(N)nccn32)C1 + CC(C)(C)c1cnc(CSc2cnc(NC(=O)C3CCNCC3)s2)o1 [SNS-032] (first compound 0.4 µM, partner dose 0.01 µM)",70.1%
